Experimental data published in paper PMC8584998, “Arabidopsis FHY3 and FAR1 Function in Age Gating of Leaf Senescence”.
Results are given in words; binding and its absence hold for the method and conditions named. Some binding calls cover weakened binding; strength is not graded here. For part of these data: Where a sequence is shown, tags or fusion partners need not be part of it.

T1: pBridge-PIF5 (PHYTOCHROME-… FACTOR 5) (Arabidopsis thaliana) (UniProt Q84LH8)
T1 sequence: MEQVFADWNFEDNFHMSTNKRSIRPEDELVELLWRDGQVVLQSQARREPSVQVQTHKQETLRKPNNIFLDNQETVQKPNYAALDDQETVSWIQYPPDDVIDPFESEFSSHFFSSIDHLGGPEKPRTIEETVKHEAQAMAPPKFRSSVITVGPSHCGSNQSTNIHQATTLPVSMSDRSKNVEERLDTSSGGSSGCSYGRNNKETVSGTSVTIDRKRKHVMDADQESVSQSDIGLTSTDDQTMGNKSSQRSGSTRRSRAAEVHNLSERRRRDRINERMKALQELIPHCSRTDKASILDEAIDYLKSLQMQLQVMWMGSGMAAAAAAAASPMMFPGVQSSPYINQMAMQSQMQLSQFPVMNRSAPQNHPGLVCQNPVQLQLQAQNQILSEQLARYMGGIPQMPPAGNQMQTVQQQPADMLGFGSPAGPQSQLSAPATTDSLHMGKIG

T2: FHY3 (FAR-RED ELONGATED HYPOCOTYL 3), third protein expressed from pBridge-PIF5-FHY3 (Arabidopsis thaliana) (UniProt Q9LIE5)
T2 sequence: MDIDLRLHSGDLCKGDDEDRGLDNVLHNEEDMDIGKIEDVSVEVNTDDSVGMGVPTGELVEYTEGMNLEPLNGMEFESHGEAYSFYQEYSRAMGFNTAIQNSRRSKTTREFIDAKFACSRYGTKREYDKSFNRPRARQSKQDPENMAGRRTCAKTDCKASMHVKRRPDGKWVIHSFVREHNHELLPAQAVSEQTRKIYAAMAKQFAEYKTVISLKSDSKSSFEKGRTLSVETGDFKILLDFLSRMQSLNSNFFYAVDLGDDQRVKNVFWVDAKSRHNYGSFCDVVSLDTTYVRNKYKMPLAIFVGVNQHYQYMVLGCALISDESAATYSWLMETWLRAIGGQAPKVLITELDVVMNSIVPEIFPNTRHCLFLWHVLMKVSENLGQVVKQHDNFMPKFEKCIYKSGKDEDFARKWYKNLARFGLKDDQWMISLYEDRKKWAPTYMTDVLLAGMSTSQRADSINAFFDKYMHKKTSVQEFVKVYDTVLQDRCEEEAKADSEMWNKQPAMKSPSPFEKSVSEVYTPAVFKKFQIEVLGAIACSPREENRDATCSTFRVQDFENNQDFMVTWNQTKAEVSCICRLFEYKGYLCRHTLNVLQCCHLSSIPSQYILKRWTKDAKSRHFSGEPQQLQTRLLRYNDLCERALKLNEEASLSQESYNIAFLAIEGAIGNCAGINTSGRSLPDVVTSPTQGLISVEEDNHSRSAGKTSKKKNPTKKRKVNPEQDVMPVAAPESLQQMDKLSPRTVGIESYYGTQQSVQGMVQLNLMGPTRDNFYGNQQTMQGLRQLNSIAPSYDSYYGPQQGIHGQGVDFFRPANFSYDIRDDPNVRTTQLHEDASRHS


Legend:
[1] = molecular target: T1, pBridge-PIF5 (PHYTOCHROME-… FACTOR 5) (Arabidopsis thaliana); assay: yeast three-hybrid; AD-EIN3 (pGADT7) with pBridge-PIF5-FHY3 (FHY3 co-expressed); yeast AH109; growth on SD/-Trp/-Leu/-Met/-His
[2] = molecular target: T2, FHY3 (FAR-RED ELONGATED HYPOCOTYL 3), third protein expressed from pBridge-PIF5-FHY3 (Arabidopsis thaliana); assay: as above
[3] = molecular target: T1, pBridge-PIF5 (PHYTOCHROME-… FACTOR 5) (Arabidopsis thaliana); assay: yeast three-hybrid; AD-EIN3 (pGADT7) with pBridge-PIF5, without FHY3; yeast AH109; growth on SD/-Trp/-Leu/-Met/-His

binding [1]	binding [2]	binding [3]	Binder
binds	–	–	FHY3 (FAR-RED ELONGATED HYPOCOTYL 3), third protein expressed from pBridge-PIF5-FHY3 (protein, UniProt Q9LIE5 1-839) MDIDLRLHSGDLCKGDDEDRGLDNVLHNEEDMDIGKIEDVSVEVNTDDSVGMGVPTGELVEYTEGMNLEPLNGMEFESHGEAYSFYQEYSRAMGFNTAIQNSRRSKTTREFIDAKFACSRYGTKREYDKSFNRPRARQSKQDPENMAGRRTCAKTDCKASMHVKRRPDGKWVIHSFVREHNHELLPAQAVSEQTRKIYAAMAKQFAEYKTVISLKSDSKSSFEKGRTLSVETGDFKILLDFLSRMQSLNSNFFYAVDLGDDQRVKNVFWVDAKSRHNYGSFCDVVSLDTTYVRNKYKMPLAIFVGVNQHYQYMVLGCALISDESAATYSWLMETWLRAIGGQAPKVLITELDVVMNSIVPEIFPNTRHCLFLWHVLMKVSENLGQVVKQHDNFMPKFEKCIYKSGKDEDFARKWYKNLARFGLKDDQWMISLYEDRKKWAPTYMTDVLLAGMSTSQRADSINAFFDKYMHKKTSVQEFVKVYDTVLQDRCEEEAKADSEMWNKQPAMKSPSPFEKSVSEVYTPAVFKKFQIEVLGAIACSPREENRDATCSTFRVQDFENNQDFMVTWNQTKAEVSCICRLFEYKGYLCRHTLNVLQCCHLSSIPSQYILKRWTKDAKSRHFSGEPQQLQTRLLRYNDLCERALKLNEEASLSQESYNIAFLAIEGAIGNCAGINTSGRSLPDVVTSPTQGLISVEEDNHSRSAGKTSKKKNPTKKRKVNPEQDVMPVAAPESLQQMDKLSPRTVGIESYYGTQQSVQGMVQLNLMGPTRDNFYGNQQTMQGLRQLNSIAPSYDSYYGPQQGIHGQGVDFFRPANFSYDIRDDPNVRTTQLHEDASRHS
–	binds	binds weakly	AD-EIN3 (ETHYLENE … 3) (protein, UniProt O24606 1-628) MMFNEMGMCGNMDFFSSGSLGEVDFCPVPQAEPDSIVEDDYTDDEIDVDELERRMWRDKMRLKRLKEQDKGKEGVDAAKQRQSQEQARRKKMSRAQDGILKYMLKMMEVCKAQGFVYGIIPENGKPVTGASDNLREWWKDKVRFDRNGPAAITKYQAENNIPGIHEGNNPIGPTPHTLQELQDTTLGSLLSALMQHCDPPQRRFPLEKGVPPPWWPNGKEDWWPQLGLPKDQGPAPYKKPHDLKKAWKVGVLTAVIKHMFPDIAKIRKLVRQSKCLQDKMTAKESATWLAIINQEESLARELYPESCPPLSLSGGSCSLLMNDCSQYDVEGFEKESHYEVEELKPEKVMNSSNFGMVAKMHDFPVKEEVPAGNSEFMRKRKPNRDLNTIMDRTVFTCENLGCAHSEISRGFLDRNSRDNHQLACPHRDSRLPYGAAPSRFHVNEVKPVVGFPQPRPVNSVAQPIDLTGIVPEDGQKMISELMSMYDRNVQSNQTSMVMENQSVSLLQPTVHNHQEHLQFPGNMVEGSFFEDLNIPNRANNNNSSNNQTFFQGNNNNNNVFKFDTADHNNFEAAHNNNNNSSGNRFQLVFDSTPFDMASFDYRDDMSMPGVVGTMDGMQQKQQDVSIWF
